Experimental data: article PMC5517149

The chains behind the UniProt entries cited, without tags or fusion partners. Where a name states a change or a piece, a line headed by the entry shows the natural chain unless it says otherwise. A line that says so, or that is headed by a name, gives the form on record, which may keep a tag or linker.
UniProt O95197: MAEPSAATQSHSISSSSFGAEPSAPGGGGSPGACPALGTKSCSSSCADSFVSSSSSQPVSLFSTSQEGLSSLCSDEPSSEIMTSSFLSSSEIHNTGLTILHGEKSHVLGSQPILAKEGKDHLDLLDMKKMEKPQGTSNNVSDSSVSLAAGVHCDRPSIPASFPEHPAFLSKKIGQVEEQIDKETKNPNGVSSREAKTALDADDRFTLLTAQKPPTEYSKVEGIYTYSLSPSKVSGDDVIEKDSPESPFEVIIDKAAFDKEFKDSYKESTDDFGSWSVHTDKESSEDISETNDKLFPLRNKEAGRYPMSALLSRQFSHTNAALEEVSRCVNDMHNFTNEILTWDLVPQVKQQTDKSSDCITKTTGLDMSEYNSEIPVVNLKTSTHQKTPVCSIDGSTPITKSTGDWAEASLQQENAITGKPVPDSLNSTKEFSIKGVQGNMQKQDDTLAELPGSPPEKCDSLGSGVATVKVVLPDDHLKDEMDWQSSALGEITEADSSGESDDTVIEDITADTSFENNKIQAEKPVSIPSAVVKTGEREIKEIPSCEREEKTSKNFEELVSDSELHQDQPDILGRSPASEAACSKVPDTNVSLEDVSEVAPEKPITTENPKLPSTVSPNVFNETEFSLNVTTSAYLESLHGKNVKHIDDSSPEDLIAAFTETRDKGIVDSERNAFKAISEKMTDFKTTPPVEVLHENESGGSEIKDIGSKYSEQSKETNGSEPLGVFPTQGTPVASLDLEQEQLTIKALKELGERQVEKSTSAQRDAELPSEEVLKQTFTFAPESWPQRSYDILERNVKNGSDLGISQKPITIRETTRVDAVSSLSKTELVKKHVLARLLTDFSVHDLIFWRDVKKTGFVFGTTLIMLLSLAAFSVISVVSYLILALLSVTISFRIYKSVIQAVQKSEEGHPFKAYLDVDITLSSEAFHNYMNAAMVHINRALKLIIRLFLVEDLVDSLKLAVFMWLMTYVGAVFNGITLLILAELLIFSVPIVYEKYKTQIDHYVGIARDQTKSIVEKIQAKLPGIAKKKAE
HA tagged RTN3S (O95197-3, form named): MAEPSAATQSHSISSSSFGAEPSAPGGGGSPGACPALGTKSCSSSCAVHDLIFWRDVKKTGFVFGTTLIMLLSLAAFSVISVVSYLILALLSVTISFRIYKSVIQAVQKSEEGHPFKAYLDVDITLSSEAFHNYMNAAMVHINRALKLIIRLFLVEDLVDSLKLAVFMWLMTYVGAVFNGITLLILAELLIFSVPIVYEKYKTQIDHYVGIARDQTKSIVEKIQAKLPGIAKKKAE
UniProt Q9BXW4: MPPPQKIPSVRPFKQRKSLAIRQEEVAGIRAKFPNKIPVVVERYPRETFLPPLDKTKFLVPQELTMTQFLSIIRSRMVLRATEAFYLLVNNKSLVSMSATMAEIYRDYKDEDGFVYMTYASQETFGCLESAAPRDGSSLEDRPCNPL
UniProt Q9NQC3: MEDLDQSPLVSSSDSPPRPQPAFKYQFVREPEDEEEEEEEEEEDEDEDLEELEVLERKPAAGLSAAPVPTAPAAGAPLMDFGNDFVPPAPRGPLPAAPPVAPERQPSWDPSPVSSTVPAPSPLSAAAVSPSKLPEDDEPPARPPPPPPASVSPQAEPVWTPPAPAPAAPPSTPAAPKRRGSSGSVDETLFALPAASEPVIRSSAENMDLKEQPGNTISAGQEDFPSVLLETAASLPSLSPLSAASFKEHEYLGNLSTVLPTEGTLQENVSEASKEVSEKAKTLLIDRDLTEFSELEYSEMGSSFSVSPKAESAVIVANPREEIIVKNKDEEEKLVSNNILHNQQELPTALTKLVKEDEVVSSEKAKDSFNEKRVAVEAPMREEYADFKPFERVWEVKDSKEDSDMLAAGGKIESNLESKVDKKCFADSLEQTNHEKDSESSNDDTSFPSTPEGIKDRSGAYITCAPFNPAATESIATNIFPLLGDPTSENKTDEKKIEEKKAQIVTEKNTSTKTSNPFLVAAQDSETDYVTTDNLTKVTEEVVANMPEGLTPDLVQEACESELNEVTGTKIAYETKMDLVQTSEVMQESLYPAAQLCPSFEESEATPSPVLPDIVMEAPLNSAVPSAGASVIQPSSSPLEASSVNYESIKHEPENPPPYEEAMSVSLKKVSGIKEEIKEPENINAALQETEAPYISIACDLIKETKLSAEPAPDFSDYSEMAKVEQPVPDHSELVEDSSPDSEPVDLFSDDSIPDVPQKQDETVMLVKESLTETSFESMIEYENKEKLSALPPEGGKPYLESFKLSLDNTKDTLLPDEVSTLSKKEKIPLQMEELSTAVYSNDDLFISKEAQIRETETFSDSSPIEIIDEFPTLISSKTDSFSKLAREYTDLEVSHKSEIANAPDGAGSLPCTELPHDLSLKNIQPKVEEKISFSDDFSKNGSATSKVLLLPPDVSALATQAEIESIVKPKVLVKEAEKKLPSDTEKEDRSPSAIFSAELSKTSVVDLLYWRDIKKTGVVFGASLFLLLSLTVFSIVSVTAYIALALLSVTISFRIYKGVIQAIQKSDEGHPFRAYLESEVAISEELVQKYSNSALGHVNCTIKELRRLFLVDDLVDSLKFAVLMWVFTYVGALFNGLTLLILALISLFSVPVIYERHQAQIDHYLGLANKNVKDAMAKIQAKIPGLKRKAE
RTN4S (co-overexpressed in HEK293T) (Q9NQC3-3, form named): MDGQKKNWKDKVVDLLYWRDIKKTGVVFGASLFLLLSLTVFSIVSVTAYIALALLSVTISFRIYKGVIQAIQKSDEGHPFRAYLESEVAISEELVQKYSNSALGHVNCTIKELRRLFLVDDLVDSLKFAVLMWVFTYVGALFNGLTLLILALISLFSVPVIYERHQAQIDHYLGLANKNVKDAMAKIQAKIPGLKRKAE
UniProt Q16799: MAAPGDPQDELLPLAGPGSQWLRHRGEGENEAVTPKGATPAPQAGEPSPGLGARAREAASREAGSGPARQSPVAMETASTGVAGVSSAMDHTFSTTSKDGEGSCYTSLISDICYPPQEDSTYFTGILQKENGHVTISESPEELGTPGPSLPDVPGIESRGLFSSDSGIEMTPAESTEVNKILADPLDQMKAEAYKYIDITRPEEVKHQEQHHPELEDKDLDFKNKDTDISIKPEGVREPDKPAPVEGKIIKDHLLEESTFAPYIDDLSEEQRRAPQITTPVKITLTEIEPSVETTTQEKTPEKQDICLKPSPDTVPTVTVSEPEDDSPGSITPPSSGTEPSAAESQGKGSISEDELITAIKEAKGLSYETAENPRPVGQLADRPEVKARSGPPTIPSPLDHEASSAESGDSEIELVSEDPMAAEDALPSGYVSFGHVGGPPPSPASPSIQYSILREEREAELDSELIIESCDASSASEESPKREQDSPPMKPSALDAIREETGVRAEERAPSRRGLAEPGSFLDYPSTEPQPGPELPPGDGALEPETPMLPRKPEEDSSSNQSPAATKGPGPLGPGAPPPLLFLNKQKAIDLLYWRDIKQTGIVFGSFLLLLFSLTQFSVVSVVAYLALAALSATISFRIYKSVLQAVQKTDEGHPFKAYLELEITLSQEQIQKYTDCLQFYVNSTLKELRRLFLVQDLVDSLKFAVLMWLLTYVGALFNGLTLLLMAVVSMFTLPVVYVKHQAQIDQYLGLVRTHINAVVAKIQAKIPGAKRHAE
RTN1S (co-overexpressed in HEK293T) (Q16799-3, form named): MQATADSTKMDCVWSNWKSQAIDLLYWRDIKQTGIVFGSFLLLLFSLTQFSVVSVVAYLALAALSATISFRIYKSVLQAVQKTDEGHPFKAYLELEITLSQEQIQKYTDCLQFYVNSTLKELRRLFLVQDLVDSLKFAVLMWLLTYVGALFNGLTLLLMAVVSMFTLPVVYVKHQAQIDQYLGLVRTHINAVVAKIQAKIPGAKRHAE
UniProt Q9H6L5: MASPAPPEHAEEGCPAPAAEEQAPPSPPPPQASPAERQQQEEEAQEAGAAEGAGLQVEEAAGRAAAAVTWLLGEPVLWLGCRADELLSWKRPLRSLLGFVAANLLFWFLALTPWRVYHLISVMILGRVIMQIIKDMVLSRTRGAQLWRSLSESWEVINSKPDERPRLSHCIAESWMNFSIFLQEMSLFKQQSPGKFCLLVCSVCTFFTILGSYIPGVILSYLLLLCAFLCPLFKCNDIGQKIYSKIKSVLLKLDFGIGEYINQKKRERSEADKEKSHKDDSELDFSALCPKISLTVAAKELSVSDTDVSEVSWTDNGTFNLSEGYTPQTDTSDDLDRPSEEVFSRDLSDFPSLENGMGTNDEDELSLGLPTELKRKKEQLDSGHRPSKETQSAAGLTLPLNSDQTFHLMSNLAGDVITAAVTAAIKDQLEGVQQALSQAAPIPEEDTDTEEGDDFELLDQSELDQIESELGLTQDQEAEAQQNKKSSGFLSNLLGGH
UniProt Q86VR2: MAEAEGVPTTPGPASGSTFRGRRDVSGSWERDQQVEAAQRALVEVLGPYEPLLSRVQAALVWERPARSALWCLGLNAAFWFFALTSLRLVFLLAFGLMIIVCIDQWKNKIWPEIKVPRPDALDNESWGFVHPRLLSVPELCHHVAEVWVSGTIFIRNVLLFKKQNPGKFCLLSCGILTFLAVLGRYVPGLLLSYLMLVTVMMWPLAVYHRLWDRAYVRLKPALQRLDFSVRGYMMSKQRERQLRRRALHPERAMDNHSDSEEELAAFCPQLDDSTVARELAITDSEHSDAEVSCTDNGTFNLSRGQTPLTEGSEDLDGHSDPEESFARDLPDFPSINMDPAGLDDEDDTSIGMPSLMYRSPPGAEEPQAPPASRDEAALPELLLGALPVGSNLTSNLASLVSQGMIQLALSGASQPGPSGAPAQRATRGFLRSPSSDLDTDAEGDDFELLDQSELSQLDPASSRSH
UniProt O95166: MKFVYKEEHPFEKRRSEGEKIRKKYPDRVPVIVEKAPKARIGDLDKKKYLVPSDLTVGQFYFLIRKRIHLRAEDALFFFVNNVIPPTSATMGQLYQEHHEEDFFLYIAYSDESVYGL

How the values were obtained:
[1] = target: RTN3L (co-overexpressed in HEK293T) (human) (UniProt O95197); assay: co-IP; proteins co-overexpressed in HEK293T for 24 hr; IP with anti-HA-agarose (overnight) or GFP-TRAP beads (2 hr) at 4°C; 50 mM HEPES pH 7.5, 150 mM NaCl, 1% Triton X-100, 10% glycerol
FLAG-HA-RTN3L (human) = FLAG-HA-RTN3L (human) (UniProt O95197); assay: co-IP; anti-HA-agarose IP of FLAG-HA-RTN isoforms from U2OS TRex stable lines (doxycycline 1 µg/ml 24 hr, bafilomycin A1 200 ng/ml 2 hr); 50 mM Tris/HCl pH 8, 120 mM NaCl, 1% NP40; overnight at 4°C; blot for endogenous GABARAP and GABARAP-L1
GST-LC3C [2] = target: GST-LC3C (UniProt Q9BXW4); assay: pull-down; GST fusions on Glutathione Sepharose 4B beads incubated with lysates of transfected HEK293T cells overnight at 4°C; 50 mM HEPES pH 7.5, 150 mM NaCl, 1% Triton X-100, 10% glycerol; blot for the HA or FLAG tag; only the target purified
[3] = target: T1, RTN2L (co-overexpressed in HEK293T) (human) (UniProt O75298); assay: co-IP; proteins co-overexpressed in HEK293T for 24 hr; IP with anti-HA-agarose (overnight) or GFP-TRAP beads (2 hr) at 4°C; 50 mM HEPES pH 7.5, 150 mM NaCl, 1% Triton X-100, 10% glycerol
T1 sequence: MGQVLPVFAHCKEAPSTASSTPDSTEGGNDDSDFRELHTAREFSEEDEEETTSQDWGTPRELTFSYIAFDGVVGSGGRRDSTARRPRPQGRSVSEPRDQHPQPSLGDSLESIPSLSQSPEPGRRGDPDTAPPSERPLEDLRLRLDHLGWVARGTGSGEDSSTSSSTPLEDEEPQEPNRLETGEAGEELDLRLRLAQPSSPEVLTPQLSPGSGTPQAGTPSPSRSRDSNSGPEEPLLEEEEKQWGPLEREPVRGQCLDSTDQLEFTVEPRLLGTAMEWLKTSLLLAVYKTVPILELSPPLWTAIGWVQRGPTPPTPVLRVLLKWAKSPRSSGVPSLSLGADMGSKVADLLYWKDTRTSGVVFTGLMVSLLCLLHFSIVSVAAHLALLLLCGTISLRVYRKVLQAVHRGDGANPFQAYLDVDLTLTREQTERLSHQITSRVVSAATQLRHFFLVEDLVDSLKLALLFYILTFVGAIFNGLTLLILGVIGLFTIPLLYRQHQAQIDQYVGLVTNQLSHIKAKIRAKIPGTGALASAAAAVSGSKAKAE

[4] = target: RTN4L (co-overexpressed in HEK293T) (human) (UniProt Q9NQC3); assay: as above
[5] = target: RTN1L (co-overexpressed in HEK293T) (human) (UniProt Q16799); assay: as above
[6] = target: FAM134B (co-overexpressed in HEK293T) (human) (UniProt Q9H6L5); assay: as above
GST-LC3C [7] = target: GST-LC3C (UniProt Q9BXW4); assay: pull-down; GST fusions on Glutathione Sepharose 4B beads incubated with A549 cell lysate (the methods name SH-SY5Y) overnight at 4°C; blot for endogenous RTN3; only the target purified

FAM134B (co-overexpressed in HEK293T) (from UniProt Q9H6L5 1-497)
binding [1]: no binding

FAM134C (co-overexpressed in HEK293T) (from UniProt Q86VR2 1-466)
binding [1]: no binding

GABARAP (endogenous) (from UniProt O95166 1-117)
binding (FLAG-HA-RTN3L (human)): binds

HA tagged RTN2L (from UniProt O75298-1 1-545)
binding (GST-LC3C [2]): no binding

HA tagged RTN3S (from UniProt O95197-3 1-236)
binding (GST-LC3C [2]): no binding

RTN1L (co-overexpressed in HEK293T) (from UniProt Q16799-1 1-776)
binding [1]: binds

RTN1S (co-overexpressed in HEK293T) (from UniProt Q16799-3 1-208)
binding [1]: binds

RTN3L (co-overexpressed in HEK293T) (from UniProt O95197-1)
binding [3]: binds | binding [4]: binds | binding [5]: binds | binding [6]: no binding

RTN4L (co-overexpressed in HEK293T) (from UniProt Q9NQC3-1 1-1192)
binding [1]: binds

RTN4S (co-overexpressed in HEK293T) (from UniProt Q9NQC3-3 1-199)
binding [1]: binds

endogenous RTN3 (from UniProt O95197 1-1032)
binding (GST-LC3C [7]): binds

B1: RTN2L (co-overexpressed in HEK293T) (protein, UniProt O75298-1 1-545)
chain: MGQVLPVFAHCKEAPSTASSTPDSTEGGNDDSDFRELHTAREFSEEDEEETTSQDWGTPRELTFSYIAFDGVVGSGGRRDSTARRPRPQGRSVSEPRDQHPQPSLGDSLESIPSLSQSPEPGRRGDPDTAPPSERPLEDLRLRLDHLGWVARGTGSGEDSSTSSSTPLEDEEPQEPNRLETGEAGEELDLRLRLAQPSSPEVLTPQLSPGSGTPQAGTPSPSRSRDSNSGPEEPLLEEEEKQWGPLEREPVRGQCLDSTDQLEFTVEPRLLGTAMEWLKTSLLLAVYKTVPILELSPPLWTAIGWVQRGPTPPTPVLRVLLKWAKSPRSSGVPSLSLGADMGSKVADLLYWKDTRTSGVVFTGLMVSLLCLLHFSIVSVAAHLALLLLCGTISLRVYRKVLQAVHRGDGANPFQAYLDVDLTLTREQTERLSHQITSRVVSAATQLRHFFLVEDLVDSLKLALLFYILTFVGAIFNGLTLLILGVIGLFTIPLLYRQHQAQIDQYVGLVTNQLSHIKAKIRAKIPGTGALASAAAAVSGSKAKAE
binding [1]: binds

B2: RTN2S (co-overexpressed in HEK293T) (protein, UniProt O75298-3 1-205)
chain: MGSKVADLLYWKDTRTSGVVFTGLMVSLLCLLHFSIVSVAAHLALLLLCGTISLRVYRKVLQAVHRGDGANPFQAYLDVDLTLTREQTERLSHQITSRVVSAATQLRHFFLVEDLVDSLKLALLFYILTFVGAIFNGLTLLILGVIGLFTIPLLYRQHQAQIDQYVGLVTNQLSHIKAKIRAKIPGTGALASAAAAVSGSKAKAE
binding [1]: binds

B3: FAM134A (co-overexpressed in HEK293T) (protein, UniProt Q8NC44 1-543)
chain: MASGGGGGNTGAGGGPGMGLSLGLGLGLSLGMSEATSEAEEEAATAEAVGRLATTLWLRLRGWEAVLAAAQRLLVWEKPLHSLVTAAALNGLFWLLSSSSLRPFFLLSVSLLAYFLLDLWQPRFLPDVSASSPEEPHSDSEGAGSGARPHLLSVPELCRYLAESWLTFQIHLQELLQYKRQNPAQFCVRVCSGCAVLAVLGHYVPGIMISYIVLLSILLWPLVVYHELIQRMYTRLEPLLMQLDYSMKAEANALHHKHDKRKRQGKNAPPGGDEPLAETESESEAELAGFSPVVDVKKTALALAITDSELSDEEASILESGGFSVSRATTPQLTDVSEDLDQQSLPSEPEETLSRDLGEGEEGELAPPEDLLGRPQALSRQALDSEEEEEDVAAKETLLRLSSPLHFVNTHFNGAGSPPDGVKCSPGGPVETLSPETVSGGLTALPGTLSPPLCLVGSDPAPSPSILPPVPQDSPQPLPAPEEEEALTTEDFELLDQGELEQLNAELGLEPETPPKPPDAPPLGPDIHSLVQSDQEAQAVAEP
binding [1]: no binding

These are yes or no findings as the source states them, for the method shown. In cells and extracts the contact can be indirect. For some assays here: Binding can be weak; no strength is given.
